PubChem BioAssay AID1259405 | NCATS, 2018
The deposit covers about 50,000 reagents; below is a part drawn at random. In the full data, about 4,000 (8%) were called active. 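Mouse siRNA library applied to hamster cells; one well for each siRNA.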 Reagents against one gene are numbered here. No sequences are given here.

Purpose: 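Silenced genes that increase secreted GFP made by CHO cells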 (primary screen)
Cell system: Chinese hamster CHO-K1 ovary cells with stable secreted eGFP expression
Reagent: single siRNA against mouse genes, 0.8 pmol siRNA per well (2 µl of 400 nM stock)
Timing: 3 days
Measured: 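Per-well intracellular GFP measured by laser scanning cytometry, plus viability from ATP luminescence, each relative to plate median of non-targeting control wells, in %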
Direction: GFP, % of control: higher = more GFP per well, higher productivity; viability (ATP), % of control: higher = more viable cells (more ATP)
Hit rule: 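Called active when intracellular GFP, relative to negative control, is at or above 120%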

Or10s1 #1 | GFP, % of control: 138; viability (ATP), % of control: 62.9; outcome: active
Or10s1 #2 | GFP, % of control: 63.5; viability (ATP), % of control: 79.1; outcome: inactive
Or10s1 #3 | GFP, % of control: 41.8; viability (ATP), % of control: 69.5; outcome: inactive
Clba1 #1 | GFP, % of control: 77.9; viability (ATP), % of control: 78.2; outcome: inactive
Clba1 #2 | GFP, % of control: 84.5; viability (ATP), % of control: 69.5; outcome: inactive
Clba1 #3 | GFP, % of control: 128; viability (ATP), % of control: 152; outcome: active
Btbd10 #1 | GFP, % of control: 93.8; viability (ATP), % of control: 113; outcome: inactive
Btbd10 #2 | GFP, % of control: 86.8; viability (ATP), % of control: 83.6; outcome: inactive
C1qbp #1 | GFP, % of control: 106; viability (ATP), % of control: 90.9; outcome: inactive
C1qbp #2 | GFP, % of control: 53.2; viability (ATP), % of control: 65.5; outcome: inactive
Bsnd #1 | GFP, % of control: 148; viability (ATP), % of control: 74.6; outcome: active
Bsnd #2 | GFP, % of control: 72.1; viability (ATP), % of control: 82.6; outcome: inactive
Bsnd #3 | GFP, % of control: 126; viability (ATP), % of control: 167; outcome: active
Krt12 #1 | GFP, % of control: 159; viability (ATP), % of control: 73.5; outcome: active
Krt12 #2 | GFP, % of control: 98.3; viability (ATP), % of control: 100; outcome: inactive
Gna14 #1 | GFP, % of control: 107; viability (ATP), % of control: 96; outcome: inactive
Gna14 #2 | GFP, % of control: 65.9; viability (ATP), % of control: 31; outcome: inactive
Gna14 #3 | GFP, % of control: 12; viability (ATP), % of control: 13.8; outcome: inactive
Or8b1d #1 | GFP, % of control: 126; viability (ATP), % of control: 98.1; outcome: active
Or8b1d #2 | GFP, % of control: 65.9; viability (ATP), % of control: 61.6; outcome: inactive
Or8b1d #3 | GFP, % of control: 88.9; viability (ATP), % of control: 67; outcome: inactive
Slc7a10 #1 | GFP, % of control: 94.1; viability (ATP), % of control: 62.5; outcome: inactive
Slc7a10 #2 | GFP, % of control: 101; viability (ATP), % of control: 78.8; outcome: inactive
Slc7a10 #3 | GFP, % of control: 102; viability (ATP), % of control: 78.2; outcome: inactive
Or11g2 #1 | GFP, % of control: 210; viability (ATP), % of control: 113; outcome: active
Or11g2 #2 | GFP, % of control: 159; viability (ATP), % of control: 100; outcome: active
Or11g2 #3 | GFP, % of control: 79.6; viability (ATP), % of control: 79.7; outcome: inactive
